This is one part of the list. The main result of the screen is listed elsewhere. These columns were measured beside it and carry no call. Most of these compounds were active or inconclusive in the main read-out, so they are no random draw. Potencies come from curve fits of mixed quality, noted in brackets.
Assay: qHTS Assay to Find Inhibitors of Chronic Active B-Cell Receptor Signaling
Conditions: ABC-DLBCL IkBa-CBG/CBR reporter, luminescence ratio (green luciferase fused to IkBa over red control in TMD8 lymphoma cells), 4 h
Method in brief: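 Cell line TMD8 (human ABC DLBCL), stably expressing tet-inducible CBG68-IkBa fusion and CBR; IMDM/0.5% FBS; cpd up to 46 uM; dox induction, 4 h, 37C/5% CO2; dual luminescence; green/red ratio; MG132 control.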

[1] = measured here: CBR red luminescence, cell number
[2] = measured here: IkBa-CBG green luminescence

## CCOc1cc(C(=O)Nc2cc(C)on2)cc(OCC)c1OCC
[1]
  AC50: 0.461 µM [rising, partial curve, poor fit]

## CNC(=S)N1N=C(c2ccc(C)cc2)CC1c1ccc(Br)cc1 (stereo unspecified)
[1]
  AC50: 8.2 µM [rising, partial curve]

## O=C1CCN(Cc2ccc([N+](=O)[O-])cc2)CCN1[C@H](CO)Cc1ccccc1
[1]
  AC50: 1.26 µM [falling, partial curve, poor fit]

## O=C(Cn1cnc2cc([N+](=O)[O-])ccc2c1=O)Nc1ccc2c(c1)CCC2
[1]
  AC50: 29.1 µM [falling, single point]

## Cc1ccc(-c2csc3nc[nH]c(=S)c23)cc1
[2]
  AC50: 23.1 µM [falling, single point]

## O=c1[nH]c(NCCO)nc2ncn(Cc3ccccc3)c12
[1]
  AC50: 4.11 µM [rising, partial curve, poor fit]

## Cc1cc(=O)oc2cc(OCC(=O)N3CCOCC3)ccc12
[1]
  AC50: 1.84 µM [rising, partial curve, poor fit]

## O=C(Nc1nnc(C2COc3ccccc3O2)o1)c1ccc(F)cc1 (stereo unspecified)
[1]
  AC50: 23.1 µM [falling, partial curve]

## COc1ccc(OC)c(/C=N/NC(=O)c2csc3ccccc23)c1
[1]
  AC50: 10 µM [falling, partial curve, poor fit]

## CSc1ccc(C(=O)C2CCCN(C(=O)c3nonc3C)C2)cc1 (stereo unspecified)
[1]
  AC50: 35.5 µM [falling, single point]

## CC12CCC(CC1=O)C2(C)C (stereo unspecified)
[1]
  AC50: 8.2 µM [rising, partial curve, poor fit]

## COc1ccc(C(=O)/C=C2\Sc3ccccc3N2C)cc1
[1]
  AC50: 22.4 µM [falling, single point]

## CCCC(=O)Nc1cccc(NC(=O)c2ccc3c(c2)OCO3)c1
[1]
  AC50: 0.651 µM [falling, full curve]

## C=COc1ccc(N2C(=O)c3ccccc3OC2C)cc1 (stereo unspecified)
[1]
  AC50: 11.2 µM [rising, single point]

## COc1ccccc1NC(=O)C(=O)N(c1cccnc1)C(C(=O)NC(C)(C)C)c1ccccc1F (stereo unspecified)
[1]
  AC50: 8.91 µM [rising, partial curve]

## O=C(COC(=O)c1ccccc1C(=O)c1ccccc1)Nc1ccc(SC(F)F)cc1
[1]
  AC50: 32.6 µM [falling, partial curve, poor fit]

## C[C@H](NC(=O)c1cc2c([nH]c3ccccc32)c(-c2ccccc2)n1)C(=O)O
[1]
  AC50: 8.91 µM [falling, partial curve, poor fit]

## OCCC1CN(Cc2ccc3ncccc3c2)CCN1Cc1ccccc1 (stereo unspecified)
[1]
  AC50: 35.5 µM [rising, single point]

## O=C(Nc1cccc2nsnc12)c1ccc2c(c1)OCO2
[1]
  AC50: 3.55 µM [falling, partial curve, poor fit]

## c1ccc(CNc2nc(N3CCN(Cc4ccccc4)CC3)nc3ccccc23)cc1
[1]
  AC50: 17.8 µM [falling, single point]

## O=C1C2CCCN2C(c2ccccc2)N1c1nccs1 (stereo unspecified)
[1]
  AC50: 22.4 µM [falling, partial curve, poor fit]

## Cc1occc1C(=O)Nc1sc2c(c1C(N)=O)CCC(C(C)(C)C)C2 (stereo unspecified)
[1]
  AC50: 16.4 µM [falling, partial curve]

## O=c1oc2ccccc2c2oc3cc(O)c(O)cc3c12
[1]
  AC50: 0.112 µM [rising, full curve, poor fit]

## COc1cccc2c1OCC/C2=N\NC(=O)COc1ccc(C)cc1
[1]
  AC50: 9.2 µM [rising, partial curve, poor fit]

## O=C(/C=C/c1ccc(Cl)cc1Cl)Nc1cccc(S(=O)(=O)NC2=NCCC2)c1
[1]
  AC50: 8.91 µM [falling, partial curve, poor fit]

## O=C(O)CSCCCC(=O)Nc1ccc(Br)cc1
[1]
  AC50: 22.4 µM [falling, single point]

## N=c1c2c(-c3ccccc3)c(-c3ccccc3)n(Cc3ccco3)c2ncn1CCCO
[1]
  AC50: 7.94 µM [falling, partial curve]

## COC(=O)c1sc(=S)n(-c2cccc(Cl)c2)c1N
[1]
  AC50: 0.562 µM [rising, full curve, poor fit]

## CC/C(=C(\c1ccc(O)cc1)c1ccc(OCCN(C)C)cc1)c1ccccc1
[1]
  AC50: 35.5 µM [falling, partial curve, poor fit]

## CC(C)(C)OC(=O)NCCCC[C@H](NC(=O)c1nc[nH]c1C(=O)N1CCN(c2ccccc2)CC1)C(=O)OC(C)(C)C
[1]
  AC50: 10 µM [rising, partial curve, poor fit]

## Cc1ccc(NC(=O)c2ccc3c(c2)OCCO3)cc1C
[1]
  AC50: 11.2 µM [falling, single point]

## Cc1cc2nc(-c3ccc(SCC(=O)N4CCOCC4)nc3)[nH]c2cc1C
[1]
  AC50: 11.6 µM [falling, partial curve, poor fit]

## CCCC(c1nnnn1C(C)(C)CC)N(CCCO)Cc1cc2cc(C)cc(C)c2[nH]c1=O (stereo unspecified)
[1]
  AC50: 11.6 µM [rising, partial curve, poor fit]

## Nc1cc(-c2ccc(Cl)cc2)nn1S(=O)(=O)c1cccc2nsnc12
[1]
  AC50: 14.6 µM [falling, single point]

## O=C(CNCCC1=CCCCC1)Nc1ccccc1N1CCCCC1
[1]
  AC50: 29.1 µM [falling, single point]

## COc1ccc(-n2cc(CNCCc3cscn3)c(-c3ccccc3Cl)n2)cc1
[1]
  AC50: 0.1 µM [rising, full curve, poor fit]

## COc1ccc(P(=O)(COc2ccc([N+](=O)[O-])cc2)c2ccc(OC)cc2)cc1
[1]
  AC50: 29.1 µM [falling, partial curve, poor fit]

## O=C(CSc1nnnn1-c1ccccc1)Nc1ccc(N2CCOCC2)cc1
[1]
  AC50: 35.5 µM [rising, single point]

## CC(C)CN=C(NS(=O)(=O)c1ccccc1)C(Cl)(Cl)Cl
[1]
  AC50: 10.3 µM [falling, partial curve]

## CCN1C(=O)c2cccc3c(S(=O)(=O)N(C(C)=O)c4ccc(OC(C)=O)cc4)ccc1c23
[1]
  AC50: 25.9 µM [rising, single point]
[2]
  AC50: 9.2 µM [falling, single point]

## CCn1nc(C(=O)OC(C(=O)c2c[nH]c3ccccc23)c2ccccc2)c2ccccc2c1=O (stereo unspecified)
[1]
  AC50: 3.66 µM [falling, single point]

## COc1ccc(C(=O)OCc2cc(=O)n3ccsc3n2)cc1F
[1]
  AC50: 25.9 µM [rising, single point]

## Cc1ccc2c(c1)C(=O)C(=O)N2CC1COc2ccccc2O1 (stereo unspecified)
[1]
  AC50: 7.08 µM [rising, full curve]
[2]
  AC50: 8.91 µM [falling, partial curve]

## O=S(=O)(c1ccc(Br)cc1)N1CCN=C1SCc1cccnc1
[1]
  AC50: 2.82 µM [rising, partial curve, poor fit]

## COc1ccc(Cl)cc1NC(=O)c1cc(-c2ccco2)on1
[1]
  AC50: 0.794 µM [rising, full curve, poor fit]

## COc1ccccc1-c1nnc(NC(=O)OCC(C)C)s1
[1]
  AC50: 0.316 µM [rising, full curve, poor fit]

## CC1(C)CC(=O)C(C=NCCN2CCNC2=O)=C(O)C1
[1]
  AC50: 32.6 µM [rising, partial curve, poor fit]

## COC1=Cc2c(ccc3ccc(=O)oc23)OC1(C)C
[1]
  AC50: 2.91 µM [rising, partial curve, poor fit]

## CCOC(=O)N1CCC(=NNC(=O)NC2CCCCC2)CC1
[1]
  AC50: 35.5 µM [falling, single point]

## C/C(=N\Nc1ccccn1)c1ccc(OC(F)F)cc1
[1]
  AC50: 8.91 µM [rising, partial curve]

## COc1cc(C(=O)NCCOc2ccccc2C)c(Br)c(OC)c1OC
[1]
  AC50: 18.4 µM [rising, partial curve, poor fit]

## COc1ccc(N(C(=O)/C=C\C(=O)Nc2ccc(Cl)cc2)C(C(=O)NCc2ccco2)c2ccc(C)cc2)cc1 (stereo unspecified)
[1]
  AC50: 3.55 µM [falling, partial curve, poor fit]

## COc1cc(/C=N/NC(N)=O)ccc1OCC(=O)N1C(C)CCCC1C (stereo unspecified)
[1]
  AC50: 12.6 µM [rising, single point]

## O=C(C(Cc1ccccc1)n1cccc1)N1CCN(c2ncccn2)CC1 (stereo unspecified)
[1]
  AC50: 2.06 µM [falling, partial curve, poor fit]

## COc1nc(Nc2cccc(C(F)(F)F)c2)nc(OC)n1
[1]
  AC50: 1.12 µM [rising, partial curve]

## Cc1ccc(C(C(=O)NCc2ccco2)N(CCc2ccccc2)C(=O)Cn2nnc3ccccc32)o1 (stereo unspecified)
[1]
  AC50: 25.1 µM [falling, single point]

## COC(=O)c1cccc(Oc2nc3c(c(=O)n(C)c(=O)n3C)n2C(C)C)c1
[1]
  AC50: 4.61 µM [rising, partial curve]

## CN1CCN(C(=S)Nc2ccc(Cl)cc2)CC1
[1]
  AC50: 11.2 µM [rising, partial curve]

## O=C(NNC(=S)Nc1ccccc1)c1cccs1
[1]
  AC50: 1.84 µM [falling, full curve]

## Cc1ccc(C(=O)NCCc2ccccc2)cc1
[1]
  AC50: 7.94 µM [falling, partial curve]

## Cc1ccccc1CNC(=O)c1ccccc1NS(C)(=O)=O
[1]
  AC50: 14.1 µM [rising, partial curve, poor fit]

## COc1cc(Cl)c(C)cc1NC(=O)c1cc(S(=O)(=O)N(C)C)ccc1N1CCCC1
[1]
  AC50: 4.11 µM [rising, full curve, poor fit]

## COc1cccc(N2CC(O)=C(c3nc4ccccc4c(=O)[nH]3)C2=N)c1
[1]
  AC50: 35.5 µM [falling, single point]
[2]
  AC50: 2.24 µM [falling, full curve]

Source: PubChem BioAssay AID493014 (National Center for Advancing Translational Sciences (NCATS), 2011)
